Among the data in PubChem BioAssay AID2685 (National Center for Advancing Translational Sciences (NCATS), 2010) are cell number change and AC50 values, retold here.

The assay in a line: qHTS Assay for Lipid Storage Modulators in Drosophila S3 Cells.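 As to cell number change: cells counted by Cell Tracker Red CMTPX staining in the red channel.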 Conditions: BODIPY lipid droplet fluorescence, 18-24 h; for cell number change: measured here: cell count max response, cells fed with added oleic acid. A digest of the protocol:
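Drosophila S3 cells got compounds at several concentrations plus oleic acid (400 uM solution). Laser-scanning cytometry with 488 nm excitation read lipid droplets at 500-530 nm and cells at 575-640 nm. Percent activity was relative to 20 uM Triacsin C.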

Where [1] appears, read: measured here: lipid fluorescence (Fed channel) AC50, cells fed with added oleic acid.
Where [2] appears, read: measured here: cell number channel AC50, cells fed with added oleic acid.

The list shows a part of the results. Shown are side measurements of this screen, not its main read-out; they come without a call. The list favours compounds with an active or inconclusive main result. Words in brackets tell the shape of the fitted curve; partial curves, single points and poor fits give uncertain potencies.

`COc1ccc(N=CC2=C(O)c3ccccc3C2=O)c(OC)c1`: the cell number change is -5.05%. As to `O=C(O)C(=O)Cc1c[nH]c2ccccc12`, the cell number change was found to be 0.551%. Besides, the AC50 under setting [1] is 13 µM [rising, partial curve]. As to `O=P(OC1CCCCC1)(OC1CCCCC1)C(Nc1ccccc1)c1cccnc1` (stereo not given), the cell number change was 18.5%.

Regarding `Cc1nnc(SCCn2c(N3CCC(Cc4ccccc4)CC3)nc3c2c(=O)[nH]c(=O)n3C)s1`, the cell number change was 7.78%. Under setting [1], the AC50 was 0.411 µM [rising, full curve, poor fit]. Regarding `Cc1ccc(S(=O)(=O)N2CCOCC2)cc1NC(=O)Cn1ccsc1=N`, the cell number change is -24.4%. The AC50 under setting [2] was 3.26 µM [falling, single point]. In addition, the AC50 under setting [1] was 29.1 µM [falling, single point]. `COc1ccc(N2C(=O)C3CCCN3C2c2ccc(Cl)cc2)cc1` (stereo not given): the cell number change was 31.4%. In addition, the AC50 under setting [2] was 6.51 µM [rising, single point]. As to `CC(=O)c1cnc(Nc2nc(C)c3ccccc3n2)nc1C`, the cell number change amounted to 55.4%. Besides, the AC50 under setting [2] was 10.3 µM [rising, partial curve]. Further, the AC50 under setting [1] was 6.51 µM [rising, single point]. For the compound `O=C(Nc1ccc(N2CCOCC2)cc1)c1cc2c(s1)CCCCC2`, the cell number change worked out at 22.3%. Besides, under setting [1], the AC50 is 6.51 µM [rising, single point].

Take `COc1ccc(CCNC(=O)C2=CC=CN3CCS(=O)(=O)N=C23)cc1`: the cell number change is -14.3%. `CCOC(=O)c1cccc(NC(=O)CSc2nnnn2C)c1`: the cell number change is -27.7%. In addition, under setting [1], the AC50 is 0.0651 µM [falling, full curve, poor fit]. As for `CC(C)CC1NC(=O)N(CC(=O)Nc2ccc3c(c2)OCCO3)C1=O` (stereo not given), the cell number change turned out to be 11.1%. Also, the AC50 under setting [1] is 0.517 µM [rising, full curve, poor fit]. As for `Fc1ccc(Nc2nc(NCc3ccco3)c3ccccc3n2)cc1`, the cell number change was -60.1%. Moreover, the concentration at half-maximal activity (AC50) under setting [2] was 29.1 µM [falling, single point].

Turning to `Cc1c(O)ccc(C(=O)COc2ccc(F)cc2)c1O`, the cell number change was -41.8%. In addition, the AC50 under setting [2] was 10.3 µM [falling, partial curve]. Moreover, the AC50 under setting [1] is 2.06 µM [falling, full curve]. With `O=c1[nH]cc(N2CCCCCC2)c(=O)[nH]1`, the cell number change is -30.9%. Further, the concentration at half-maximal activity (AC50) under setting [2] was 29.1 µM [falling, single point]. In addition, the AC50 under setting [1] is 29.1 µM [falling, single point]. Regarding `COc1ccccc1NC(=O)c1ccc(NC(=O)CSc2nc(N)cc(=O)[nH]2)cc1`, the cell number change is -8.43%. In addition, the AC50 under setting [1] was 1.16 µM [rising, partial curve, poor fit]. Consider `CCOC(=O)Nc1ccc(S(=O)(=O)NC2CCCCC2)cc1`, for which the cell number change was 12%.

Regarding `CCOc1[nH]n(-c2ccccc2)c(=O)c1C=Nc1ccc(C)cc1`, the cell number change amounted to 65.6%. For the compound `CC(Sc1nnc(-c2ccco2)n1C)C(=O)NC1CCCC1` (stereo not given), the cell number change was -36.1%. In addition, the AC50 under setting [2] is 29.1 µM [falling, single point].

Take `COc1ccccc1-c1coc2c(CN3CCN(C)CC3)c(O)ccc2c1=O`: the cell number change is -0.0737%. In addition, under setting [1], the AC50 is 20.6 µM [falling, partial curve].

Take `COc1ccccc1CNC(=O)C(=O)NCC1OCCCN1S(=O)(=O)c1ccc(F)cc1C` (stereo not given): the cell number change came to 36.1%. In addition, the AC50 under setting [2] was 25.9 µM [rising, single point]. Also, under setting [1], the AC50 was 18.4 µM [rising, single point].

With `CC(C)Sc1nnc(SCC(=O)N(C)C2CCS(=O)(=O)C2)s1` (stereo not given), the cell number change is -7.89%. Under setting [1], the AC50 was 6.51 µM [falling, single point]. Take `COc1ccc(C2c3[nH]c4ccccc4c3CCN2C(=O)c2cn3ccccc3n2)c(F)c1` (stereo not given): the cell number change was -29.4%. Moreover, the AC50 under setting [1] was 14.6 µM [falling, partial curve].

Regarding `COC(=O)c1sccc1NC(=O)c1cc2c(s1)CCCC2`, the cell number change was -23.6%.

For the compound `CCC(Sc1nc(N)c(NC(=O)c2ccc(OC)c(OC)c2)c(=O)[nH]1)C(=O)OC` (stereo not given), the cell number change turned out to be 15.8%. Moreover, the AC50 under setting [1] is 1.03 µM [rising, single point]. As for `CCOC(=O)N1CCN(c2c(F)cc3[nH]c(=S)[nH]c3c2Br)CC1`, the cell number change was -25.3%. Take `CSc1ccc(/C=C/C(=O)c2ccc(O)cc2)cc1`: the cell number change was -15.3%. For the same compound, the AC50 under setting [1] is 29.1 µM [falling, single point]. `CC(=O)Nc1ccc(NC(=O)COc2cc(C)cc3oc(=O)cc(C)c23)cc1`: the cell number change was -13%. As for `CCCCNC(=O)CSc1nc(O)cc(=O)n1C1CCCC1`, the cell number change is -49.8%. Moreover, the AC50 under setting [1] was 9.2 µM [falling, single point].

With `Cc1ccc2nc(NC(=O)C3CCN(S(=O)(=O)c4cnc[nH]4)CC3)sc2c1`, the cell number change was 18.3%. For the same compound, under setting [1], the AC50 is 29.1 µM [rising, single point]. With `COc1ccc(C(=O)CSc2nnc(CNC(=O)c3ccco3)n2C)cc1OC`, the AC50 under setting [1] is 29.1 µM [rising, single point].

As to `CCOCCCNC(=O)C(NC(=O)Cc1cccs1)c1ccc(Cl)cc1` (stereo not given), the cell number change is -105%. Further, under setting [2], the AC50 is 25.9 µM [falling, single point]. Turning to `COc1ccccc1N1CCN(c2cc(=O)n(-c3ccc(Br)cc3)c(=O)[nH]2)CC1`, the AC50 under setting [2] was 3.66 µM [rising, single point] and the AC50 under setting [1] is 5.17 µM [rising, single point]. For `CCCc1cc(-c2nc(-c3ccc(Br)cc3)cs2)ccn1`, the cell number change is -30.3%. Further, the AC50 under setting [1] is 25.9 µM [falling, single point]. As for `Oc1ccc(N=Nc2ccccc2)cc1`, the cell number change is 10.8%. For the same compound, the AC50 under setting [1] was 6.51 µM [rising, single point]. With `CCOC(=O)c1c(C)noc1-c1ccc(Br)o1`, the cell number change is -24%. The AC50 under setting [2] was 4.11 µM [falling, full curve, poor fit]. In addition, the AC50 under setting [1] is 4.11 µM [falling, full curve]. As for `COc1nc(N(c2ccccc2)c2ccccc2)nc(-n2ccnc2)n1`, the cell number change turned out to be 22.7%. The AC50 under setting [1] is 6.51 µM [rising, single point].

As to `CCCCCN(C(=O)CCC(=O)OCC(=O)N(CC)c1ccccc1)c1c(N)n(CCCC)c(=O)[nH]c1=O`, the cell number change was -2%. Take `CCOc1cc(/C=C2\SC(N)=NC2=O)ccc1O`: under setting [1], the AC50 is 3.66 µM [falling, full curve, poor fit]. For `COc1cc(C(=O)Nc2ccc(S(=O)(=O)Nc3nccc(C)n3)cc2)cc(OC)c1OC`, under setting [1], the AC50 is 0.082 µM [falling, full curve, poor fit].

Regarding `COc1cc2[nH]c(-c3ccc(C)cc3)cc(=O)c2cc1OC`, the cell number change came to 9.25%. Also, under setting [1], the concentration at half-maximal activity (AC50) is 2.31 µM [rising, partial curve]. On to `COc1ccc(-c2nn(CCC#N)cc2C(=O)Nc2cccc(C(=O)O)c2)cc1OC`, for which the cell number change was -6.21%.
